Results are given in words; binding and its absence hold for the method and conditions named. Some binding calls cover weakened binding; strength is not graded here. Sequences can lack the tags named with a protein.
Molecular target: T1, ActRIIB2-Fc (trap containing two ActRIIB ECDs) (human) (UniProt Q13705)
T1 sequence: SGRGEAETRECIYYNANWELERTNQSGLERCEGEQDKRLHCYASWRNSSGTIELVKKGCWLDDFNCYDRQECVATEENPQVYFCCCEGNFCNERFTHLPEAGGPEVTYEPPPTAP
Assay: SPR

B1: deglycosylated BMP6 (ligand)
chain: SASSRRRQQSRNRSTQSQDVARVSSASDYNSSELKTACRKHELYVSFQDLGWQDWIIAPKGYAANYCDGECSFPLNAHMNATNHAIVQTLVHLMNPEYVPKPCCAPTKLNAISVLYFDDNSNVILKKYRNMVVRACGCH
modifications: deglycosylated with PNGase F
How did the binding turn out when B1 was run?
Its binding is “binds”.

From paper doi:10.1101/2025.02.07.637115 (bioRxiv, 2025)
